“Also recorded” adds a separate entry of the source.
Tested on: iPSC-derived cortical glutamatergic neurons
Test: Neurite outgrowth assay in iPSC-derived neurons
Format: cell-based, human
Conditions: 24 h treatment, Figure 5D

For `CC(C)n1nc(-c2cc3cc(O)ccc3[nH]2)c2c(N)ncnc21` [pp242], the “inhibition of neurite outgrowth, in words” value was “did not inhibit neurite outgrowth; also recorded: didn’t inhibit neurite outgrowth”.

Reference: PMC7341485 (Chemical research in toxicology, 2019)
